For 26 molecules, T/C and survivor count results are on record in PubChem BioAssay AID208 (DTP/NCI, 2004).

The subject of the assay is HT29 intrarenal xenograft, nude mice, tumor weight change. Nature of the assay: NCI In Vivo Anticancer Drug Screen. Data for tumor model HT29;CX-1 Human Adenocarcinoma (MER+) (intrarenal inoculation) in NU/NU BALB/C (nude) mice. Conditions: T/C endpoint: mean tumor weight change, higher T/C = larger tumour. How it is done:
The antitumor activity of compounds was measured in mice bearing transplantable tumors. Survival or tumor size were measured and the results are expressed as the measurement made in the treated group (T) divided by the measurement made in the vehicle treated control group (C). The tumor model used in this assay is HT29;CX-1 Human Adenocarcinoma (MER+) (intrarenal inoculation) in NU/NU BALB/C (nude) mice

Where [1] appears, read: dose: 40.0 mg/kg/injection, schedule: Q04DX004 (sc), vehicle: saline.

The list is a part of this screen's results and no random one: it gathers tests that were run many times, whatever their T/C, doses with no T/C, and many T/C values between a quarter and a half above the control. Further doses and runs are listed elsewhere. T/C is the treated group as % of the vehicle group. Schedule codes are those of the source, read here as Q, the interval in days (D) or hours (H), X, the number of doses. Some values lie below zero, which means that the treated tumours became smaller. Some doses were run more than once; the values are given in rising order. Some T/C values are followed by the survivors on the day toxicity was checked, most often the fifth; without a count, all were alive then. Some entries give survivors of the animals treated and no T/C: the source files T/C as zero there, which appears to mark a toxic dose or a test without result, not a measured value. Counts of survivors are from the toxicity check (mostly the fifth day) where no day follows; animals may have died later.

As for `Cc1c(N)nc([C@H](CC(N)=O)NC[C@H](N)C(N)=O)nc1C(=O)N[C@H](C(=O)N[C@H](C)[C@@H](O)[C@H](C)C(=O)N[C@H](C(=O)NCCc1nc(-c2nc(C(=O)NCCC[S+](C)C)cs2)cs1)[C@@H](C)O)C(OC1OC(CO)C(O)C(O)C1OC1OC(CO)C(O)C(OC(N)=O)C1O)c1cnc[nH]1` (stereo not given in full), the T/C was 39, 86, 98, 161 % of control (dose: 16.0 mg/kg/injection, schedule: Q04DX004 (ip), vehicle: saline, evaluated on day 15); 51, 104, 120 [5 of 6 alive on day 15], 181 % of control (dose: 24.0 mg/kg/injection, schedule: Q04DX004 (ip), vehicle: saline, evaluated on day 15); 37, 72, 82, 114 % of control (dose: 36.0 mg/kg/injection, schedule: Q04DX004 (ip), vehicle: saline, evaluated on day 15).

For `COc1nc(=O)n(C2C=CC(=O)O2)cc1F` (stereo not given), the survivor count (dose: 300.0 mg/kg/injection, schedule: Q04DX004 (sc), vehicle: suspension in saline) was 3 of 6 on day 15 and the survivor count (dose: 600.0 mg/kg/injection, schedule: Q04DX004 (sc), vehicle: suspension in saline) is recorded as 2 of 4 on day 15.

`O=C1N[C@H]2[C@H](CS[C@H]2CCCCC(=O)N(CCP(c2ccccc2)c2ccccc2)CCP(c2ccccc2)c2ccccc2)N1`: the T/C (dose: 300.0 mg/kg/injection, schedule: Q04DX004 (sc), vehicle: Klucel (hydroxypropylcellulose) (HPC), evaluated on day 15) is 126 % of control and the T/C (dose: 1200.0 mg/kg/injection, schedule: Q04DX004 (sc), vehicle: Klucel (hydroxypropylcellulose) (HPC), evaluated on day 15) is 127 % of control [5 of 6 alive on day 15].

For the molecule `CNC=O`, for the setting “dose: 800.0 mg/kg/injection, schedule: Q01DX010 (ip), vehicle: saline”, the survivor count is 2 of 6 on day 11.

Regarding `O=NN(CCCl)C(=O)NCCCl`, the T/C is 47, 61, 83, 107 % of control (dose: 12.0 mg/kg/injection, schedule: Q04DX004 (ip), vehicle: saline + alcohol, evaluated on day 15); -21, 31, 74, 136 % of control (dose: 18.0 mg/kg/injection, schedule: Q04DX004 (ip), vehicle: saline + alcohol, evaluated on day 15); 49 [5 of 6 alive on day 15], 62, 97, 115 % of control [5 of 6 alive on day 15] (dose: 27.0 mg/kg/injection, schedule: Q04DX004 (ip), vehicle: saline + alcohol, evaluated on day 15).

As for `Nc1nc2ccc(NCc3ccc(C(=O)NC(CCC(=O)O)C(=O)O)cc3)cc2c(=O)[nH]1` (stereo not given), the T/C (dose: 100.0 mg/kg/injection, schedule: Q04DX004 (sc), vehicle: saline with Tween-80, evaluated on day 15) was 129 % of control. Also, the survivor count (dose: 800.0 mg/kg/injection, schedule: Q04DX004 (sc), vehicle: saline with Tween-80) is listed as 0 of 6 on day 15.

For the molecule `N[C@@H](Cc1ccc(N(CCCl)CCCl)cc1)C(=O)O`, the T/C is, setting by setting: (dose: 4.0 mg/kg/injection, schedule: Q04DX004 (ip), vehicle: saline, evaluated on day 15) 13, 53, 88, 129 % of control; (dose: 6.0 mg/kg/injection, schedule: Q04DX004 (ip), vehicle: saline, evaluated on day 15) -41, 32, 35, 117 % of control; (dose: 9.0 mg/kg/injection, schedule: Q04DX004 (ip), vehicle: saline, evaluated on day 15) -37, 11, 41, 65 % of control [4 of 5 alive on day 15]. For the same molecule, the survivor count (dose: 8.0 mg/kg/injection, schedule: Q01DX010 (sc), vehicle: saline) is listed as 0 of 3 on day 11.

For the molecule `O=P1(NCCCl)OCCCN1CCCl` (stereo not given), the survivor count runs as follows: (dose: 150.0 mg/kg/injection, schedule: Q04DX004 (sc), vehicle: saline) 0 of 6 on day 15; (dose: 300.0 mg/kg/injection, schedule: Q04DX004 (sc), vehicle: saline) 0 of 6 on day 15; (dose: 600.0 mg/kg/injection, schedule: Q04DX004 (sc), vehicle: saline) 0 of 6 on day 15.

Regarding `OCCOCCN1CCN(CCCN2c3ccccc3Sc3ccc(C(F)(F)F)cc32)CC1`, the survivor count (dose: 96.0 mg/kg/injection, schedule: Q01DX010 (sc), vehicle: saline) is given as 0 of 3 on day 11.

With `Cn1c(=O)[nH]c2nncnc2c1=O`, the survivor count (dose: 120.0 mg/kg/injection, schedule: Q04DX004 (sc), vehicle: water) was 3 of 6 on day 15; the survivor count (dose: 240.0 mg/kg/injection, schedule: Q04DX004 (sc), vehicle: water) was 0 of 6 on day 15; the survivor count (dose: 480.0 mg/kg/injection, schedule: Q04DX004 (sc), vehicle: water) is given as 0 of 6 on day 15.

For `CCCCc1ccc2nc(NC(=O)OC)[nH]c2c1`, for the setting “dose: 50.0 mg/kg/injection, schedule: Q01DX010 (sc), vehicle: saline with Tween-80, evaluated on day 11”, the T/C is 127 % of control [2 of 2 alive on day 11].

As for `C1OC1CO[C@@H]1CO[C@H]2[C@@H]1OC[C@H]2OCC1CO1` (stereo not given in full), the survivor count (dose: 400.0 mg/kg/injection, schedule: Q01DX010 (sc), vehicle: saline with Tween-80) was 0 of 3 on day 11.

As to `COC1=C(OC)C(=O)C(SC/C=C(\C)CCCC(C)CCCC(C)CCCC(C)C)=CC1=O` (stereo not given), the survivor count (dose: 2400.0 mg/kg/injection, schedule: Q04DX004 (ip), vehicle: saline with Tween-80) is 2 of 6 on day 15.

Take `CCC1=C[C@H]2CN(CCc3c([nH]c4ccccc34)[C@@](C(=O)OC)(c3cc4c(cc3OC)N(C)[C@H]3[C@@](O)(C(=O)NC)[C@H](OC(C)=O)[C@]5(CC)C=CCN6CC[C@]43[C@@H]65)C2)C1`: the survivor count reads like this: (dose: 4.0 mg/kg/injection, schedule: Q04DX004 (sc), vehicle: water) 2 of 6 on day 15; (dose: 8.0 mg/kg/injection, schedule: Q04DX004 (sc), vehicle: water) 0 of 6 on day 15.

On to `CN(C)N=Nc1cccc(C(N)=O)c1`, for which the survivor count (dose: 200.0 mg/kg/injection, schedule: Q04DX004 (sc), vehicle: Klucel (hydroxypropylcellulose) (HPC)) is recorded as 0 of 6 on day 15.

In the case of `CC(=O)OC(C)C1C2=C(C(=O)CC1(C)O)C(=O)c1c(ccc(-c3ccc4c(c3O)C(=O)C3=C(C4=O)C(C(C)OC(C)=O)C(C)(O)CC3=O)c1O)C2=O` (stereo not given), for the setting “dose: 60.0 mg/kg/injection, schedule: Q04DX004 (ip), vehicle: saline with Tween-80”, the survivor count was 0 of 6 on day 15.

`OCC(O)C(O)C(O)C(O)CO` (stereo not given): the T/C (dose: 1200.0 mg/kg/injection, schedule: Q04DX004 (ip), vehicle: saline, evaluated on day 11) was 129 % of control.

`C[C@@H]1CC[C@]2(C)CC[C@]3(C)C(=CC[C@@H]4[C@@]5(C)CC[C@@H](OC(=O)c6ccc(O)cc6)C(C)(C)[C@@H]5C[C@H](O)[C@]43C)[C@@H]2[C@H]1C(=O)O`: the survivor count (dose: 5.0 mg/kg/injection, schedule: Q04DX004 (sc), vehicle: saline with Tween-80) is 1 of 6 on day 15.

Turning to `CN=C(NC#N)NCCSCc1nc[nH]c1C`, for the setting “dose: 1800.0 mg/kg/injection, schedule: Q04DX004 (sc), vehicle: Klucel (hydroxypropylcellulose) (HPC), evaluated on day 15”, the T/C was 135 % of control [5 of 6 alive on day 15].

Consider `CC(C)CC(NC(=O)CF)C(=O)O` (stereo not given), for which the survivor count is 3 of 6 on day 15 under setting [1] and 0 of 6 on day 15 (dose: 80.0 mg/kg/injection, schedule: Q04DX004 (sc), vehicle: saline).

For the molecule `NC(Cc1ccc(N(CCCl)CCCl)cc1)C(=O)O` (stereo not given), the survivor count under setting [1] is 0 of 6 on day 15.

With `O=C1OC(C(O)CO)C(O)=C1O` (stereo not given), the T/C (dose: 1600.0 mg/kg/injection, schedule: Q01DX010 (sc), vehicle: saline, evaluated on day 11) is 142 % of control [2 of 3 alive on day 11]. The survivor count (dose: 3200.0 mg/kg/injection, schedule: Q01DX010 (sc), vehicle: saline) was 0 of 3 on day 11.

Turning to `CO[C@H](/C(C)=C/C=C/C(C)=C/c1coc(C)n1)[C@H](C)[C@H]1C[C@@H](O)[C@@]2(C)O[C@H]2/C=C/[C@@H](C)[C@@H]2C[C@@H](CC(=O)O2)C[C@H]2O[C@@H]2C(=O)O1`, under “dose: 1.0 mg/kg/injection, schedule: Q04DX004 (sc), vehicle: Klucel (hydroxypropylcellulose) (HPC)”, the survivor count is on record as 1 of 6 on day 15.

Regarding `Nc1ccn([C@@H](C=O)O[C@@H](C=O)CO)c(=O)n1`, the survivor count (dose: 400.0 mg/kg/injection, schedule: Q04DX004 (sc), vehicle: saline) is on record as 0 of 6 on day 15.

As to `C[n+]1c(-c2cccc3ccccc23)c2cc(N)ccc2c2ccccc21`, the survivor count is, setting by setting: (dose: 48.0 mg/kg/injection, schedule: Q04DX004 (sc), vehicle: saline) 0 of 5 on day 15; (dose: 96.0 mg/kg/injection, schedule: Q04DX004 (sc), vehicle: saline) 0 of 6 on day 15; (dose: 192.0 mg/kg/injection, schedule: Q04DX004 (sc), vehicle: saline) 0 of 6 on day 15.

For the molecule `C(CSC1=NCCN1)CSC1=NCCN1`, the T/C (dose: 50.0 mg/kg/injection, schedule: Q01DX010 (sc), vehicle: saline, evaluated on day 11) is 127 % of control.
